From PubChem BioAssay AID1741 (Vanderbilt High Throughput Screening Facility, 2009)
About 150 (8.8%) of roughly 1,700 compounds were called active. The shares of active, inactive and inconclusive entries below differ from those in the screen.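 How the source made its calls: active means fluorescence change differing from the plate's solvent-only control wells at 99.7% confidence in both duplicates, whether higher or lower; inconclusive means differs from solvent controls in only one of two duplicates; inactive means the rest.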

Protein sequences, listed by entry. Tags and fused reporters are not part of them.
UniProt P08485, whole entry, looked up: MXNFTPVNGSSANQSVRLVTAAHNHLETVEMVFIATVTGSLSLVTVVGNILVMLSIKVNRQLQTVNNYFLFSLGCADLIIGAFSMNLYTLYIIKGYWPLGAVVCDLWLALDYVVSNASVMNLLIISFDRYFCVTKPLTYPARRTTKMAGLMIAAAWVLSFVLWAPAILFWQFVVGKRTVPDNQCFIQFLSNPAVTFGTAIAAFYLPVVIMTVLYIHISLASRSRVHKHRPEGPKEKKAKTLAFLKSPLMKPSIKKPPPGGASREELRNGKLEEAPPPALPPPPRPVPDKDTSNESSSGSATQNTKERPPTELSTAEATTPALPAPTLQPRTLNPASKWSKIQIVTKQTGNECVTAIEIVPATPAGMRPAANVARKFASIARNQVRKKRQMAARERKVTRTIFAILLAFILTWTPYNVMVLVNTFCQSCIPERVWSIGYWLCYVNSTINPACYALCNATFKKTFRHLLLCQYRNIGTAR

Each compound was assayed against Muscarinic acetylcholine receptor M4 (Rattus norvegicus) (UniProt P08485) (assay: rat M4 muscarinic receptor activation – cell-based, agonist mode, counter-screen for M1 allosteric modulator project, confirmation (AID 1741)). Details: CHO M4/Gqi5 cells, Fluo-4 calcium fluorescence, at 10 µM, actives lie on both sides.
For `C=CCn1c(=O)/c(=C/c2ccc(O)cc2)s/c1=C(/C#N)c1nnc2n1CCCCC2`, the fluorescence change (max-min) was inconclusive: 112.
`CCOC(=O)C1CCN(c2c(N3CCCC(C(=O)OCC)C3)c(=O)c2=O)CC1` (centres undefined) was tested, and the fluorescence change (max-min) was inconclusive: -39.9.
For `Cc1ccc(S(=O)(=O)N2CCN(S(C)(=O)=O)C2c2ccccc2)cc1` (centres undefined), the fluorescence change (max-min) was inconclusive: -173.
For `COc1ccc(-c2cn3cc(C)ccc3n2)cc1OC`, the fluorescence change (max-min) was inconclusive: -68.3.
For `Cc1noc(C(=O)Nc2sc3c(c2C#N)CCC3)c1Cl`, the fluorescence change (max-min) was inactive: -19.6.
With `CCc1ccc(-c2nc(CSCC(=O)N3CCN(c4ncccn4)CC3)c(C)o2)cc1` the fluorescence change (max-min) was inconclusive: -65.5.
`C=C(C)CN1CCN(c2c(CCC#N)c(C)c(C#N)c3nc4ccccc4n23)CC1` was tested, and the fluorescence change (max-min) was inactive: 0.765.
For `Cc1cc(-n2c(C)cc(C(=O)CSc3ncnc4ccccc34)c2C)no1`, the fluorescence change (max-min) was inconclusive: -21.2.
With `CN(C)c1ccc(NC(=O)c2sc(SCC(=O)Nc3nccs3)nc2N)cc1` the fluorescence change (max-min) was inconclusive: -53.9.
In the case of `O=C(COC(=O)CCc1c[nH]c(=O)[nH]1)Nc1cccc(Cl)c1`, the fluorescence change (max-min) was inactive: -12.1.
`Cc1cc(SCC(=O)OCC(=O)N2CCN(C(=O)c3ccco3)CC2)c(C)cc1Br` was tested, and the fluorescence change (max-min) was inactive: -11.1.
For `Cn1c(=O)c2nc(NCc3ccccc3)cnc2n(C)c1=O`, the fluorescence change (max-min) was active: 166.
With `CCn1c(SCC(=O)Nc2cc(C)ccc2C)nc2c(c1=O)SC(C)C2` (centres undefined) the fluorescence change (max-min) was inconclusive: -76.3.
For `CCOC(=O)c1c(-c2ccccc2)nnn1-c1nc(OCC)nc(N2CCCCC2)n1`, the fluorescence change (max-min) was inconclusive: -152.
For `O=C(O)c1ccccc1-c1ccc(/C=c2\sc3nc4cc(Br)cnc4n3c2=O)o1`, the fluorescence change (max-min) was inconclusive: 165.
With `COCCCNc1c2c3c(cccc3[nH]c1=O)C(=O)c1ccccc1-2` the fluorescence change (max-min) was active: 2820.
`CCCn1c(C2CC(=O)N(c3cc(OC)ccc3OC)C2)nc2ccccc21` (centres undefined) was tested, and the fluorescence change (max-min) was inactive: -56.4.
`COc1ccccc1NC(=O)C1=C(C)Nc2nc(-c3cccs3)nn2C1c1cccc(O)c1` (centres undefined) was tested, and the fluorescence change (max-min) was inconclusive: -87.6.
In the case of `CC(=O)N1CCN(c2ccc(Nc3ncnc4c3oc3ccccc34)cc2)CC1`, the fluorescence change (max-min) was inconclusive: -75.5.
In the case of `CN(C)c1nc(SCCOC(=O)COc2ccc(Cl)cc2Cl)nc(N(C)C)n1`, the fluorescence change (max-min) was inconclusive: -86.7.
In the case of `O=C(CCCCCn1c(=S)[nH]c2cc3c(cc2c1=O)OCO3)N1CCN(C2CCCCC2)CC1`, the fluorescence change (max-min) was inconclusive: -49.
For `Oc1c(/C=N/c2ncn[nH]2)ccc2ccccc12`, the fluorescence change (max-min) was inconclusive: 66.9.
With `CS(=O)(=O)N1CCc2cc(S(=O)(=O)Nc3ccc4c(c3)OCCO4)ccc21` the fluorescence change (max-min) was inactive: -23.3.
With `CCOc1ccccc1NC(=O)CN(c1cc(C)cc(C)c1)S(=O)(=O)c1c(C)noc1C` the fluorescence change (max-min) was inactive: -19.2.
For `O=C(COc1cccc(NC(=O)c2ccco2)c1)c1ccc(F)cc1`, the fluorescence change (max-min) was inconclusive: -64.3.
`CCOC(=O)c1ccc(S(=O)(=O)Nc2cc(C(C)(C)C)no2)cc1` was tested, and the fluorescence change (max-min) was inactive: -16.
For `Cc1cccc(N2CCN(C(=O)Cn3sc4nc(C)cc(C)c4c3=O)CC2C)c1` (centres undefined), the fluorescence change (max-min) was active: -67.4.
For `Cc1ccccc1OCC(=O)Nc1cccc(NC(=O)c2ccco2)c1`, the fluorescence change (max-min) was inconclusive: -43.4.
With `Cc1ccnc(SCC(=O)Nc2sc3c(c2C#N)CCCC3)n1` the fluorescence change (max-min) was inconclusive: -72.7.
In the case of `COc1ccc(OC)c(CN2CCN(C(=O)c3cccs3)CC2)c1`, the fluorescence change (max-min) was inconclusive: -114.
With `C=CCOc1cccc(C2C(C(=O)c3ccc(C)o3)=C(O)C(=O)N2c2nccs2)c1` (centres undefined) the fluorescence change (max-min) was active: 83.6.
In the case of `O=c1[nH]c2c(s1)C=Nc1ccccc1N2`, the fluorescence change (max-min) was active: 227.
In the case of `O=C(NC1CC1)c1c[nH]c2ccc(S(=O)(=O)Nc3cccc(C(F)(F)F)c3)cc2c1=O`, the fluorescence change (max-min) was inconclusive: -36.1.
For `CCOc1cc(-c2nc3cc(C)ccn3c2NCC2CCCO2)ccc1O` (centres undefined), the fluorescence change (max-min) was inactive: -60.7.
`COc1ccccc1Oc1ccc(S(=O)(=O)NCc2ccccn2)cc1` was tested, and the fluorescence change (max-min) was inconclusive: -135.
With `Cc1cc(C(=O)CSc2nnc(-c3ccco3)o2)c(C)n1-c1ccc2c(c1)OCCO2` the fluorescence change (max-min) was inactive: -44.1.
With `CCOC(=O)C1CCN(C(=O)Nc2ccc3nc(-c4ccco4)c(-c4ccco4)nc3c2)CC1` the fluorescence change (max-min) was inconclusive: 327.
For `CCOC(=O)C(C)Sc1nnc(CNC(=O)c2ccc(OC)cc2)n1C1CCCCC1` (centres undefined), the fluorescence change (max-min) was inconclusive: -122.
For `COc1cccc(C2=CC(c3ccccc3)n3ncnc3N2)c1` (centres undefined), the fluorescence change (max-min) was active: 148.
In the case of `CCOc1ncccc1C(=O)Nc1ccc2c(C)cc(=O)oc2c1`, the fluorescence change (max-min) was inconclusive: -168.
For `CC(C)OCCCn1c(=N)c(C(N)=S)cc2c(=O)n3ccccc3nc21`, the fluorescence change (max-min) was inconclusive: -96.
In the case of `CN1CCC(NC(=O)c2cccs2)CC1`, the fluorescence change (max-min) was inconclusive: -74.8.
In the case of `c1ccc(-n2c(-c3ccncc3)nnc2-c2cccs2)cc1`, the fluorescence change (max-min) was inconclusive: -184.
In the case of `O=C(CN(Cc1ccco1)C(=O)CNS(=O)(=O)c1ccc(F)cc1)NCCc1ccccc1`, the fluorescence change (max-min) was inconclusive: -94.8.
